The source of these data is publication PMC12707310.

By UniProt entry, the sequences of proteins in these tests, tags left out.
UniProt P51149: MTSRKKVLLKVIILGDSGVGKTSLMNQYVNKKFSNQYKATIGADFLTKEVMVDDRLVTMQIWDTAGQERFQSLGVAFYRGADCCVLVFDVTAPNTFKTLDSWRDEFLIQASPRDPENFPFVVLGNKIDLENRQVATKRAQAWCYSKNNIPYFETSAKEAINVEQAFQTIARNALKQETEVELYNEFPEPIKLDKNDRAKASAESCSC

These are yes or no findings as the source states them, for the method shown. Binding seen in cells or lysates may run through a third protein. Some entries that bind do so weakly or less than the wild type.

The target in experiment [1] is T1, maspardin (SPG21), endogenously expressed in HeLa cells (human (endogenous in HeLa)) (UniProt Q9NZD8).
T1 sequence: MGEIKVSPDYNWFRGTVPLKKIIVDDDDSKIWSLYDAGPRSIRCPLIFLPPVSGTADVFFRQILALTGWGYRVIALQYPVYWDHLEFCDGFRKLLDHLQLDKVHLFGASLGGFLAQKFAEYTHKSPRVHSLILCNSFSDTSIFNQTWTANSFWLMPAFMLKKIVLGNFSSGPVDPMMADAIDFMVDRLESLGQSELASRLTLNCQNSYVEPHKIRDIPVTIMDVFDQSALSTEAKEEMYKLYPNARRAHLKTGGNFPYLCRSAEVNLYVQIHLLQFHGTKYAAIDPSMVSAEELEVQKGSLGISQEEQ
The experiment can be described thus: co-IP; endogenous maspardin precipitated from HeLa lysate with an anti-maspardin antibody and protein A magnetic beads; lysis in 120 mM NaCl, 50 mM Tris-HCl pH 7.4, 0.05% NP40, 5 mM EDTA, 4°C; washes PBS Tween 0.05%; RAB7 detected by western blotting; SPG21 KO cells, beads alone and non-targeting IgG as controls. (In general: In western blotting, separated proteins are transferred to a membrane and probed.)

Experiment [2] addresses T1, maspardin (SPG21), endogenously expressed in HeLa cells (human (endogenous in HeLa)). The experiment can be described thus: co-IP; co-immunoprecipitation of maspardin with VPS35 or TBC1D5, under conditions showing maspardin's binding with RAB7; no figure; bait not told.
Experiment [3] deals with mCherry-RAB7 WT (UniProt P51149). The experiment can be described thus: co-IP; WT mCherry-RAB7 expressed in control and SPG21 KO HeLa cells, cells pretreated with the cross-linker DSP (500 µM, 30 min, RT), lysed in 150 mM NaCl, 30 mM Tris-HCl pH 7.5, 0.5% NP40, 1 mM MgCl2; RFP-trap beads 1 h 30 at 4°C; endogenous CCZ1 or TBC1D5 detected by western blotting.
The target is the same in experiment [4]. Description: co-IP; mCherry-RAB7 (WT, CA, DN) expressed in control HeLa cells, cells pretreated with the cross-linker DSP (500 µM, 30 min, RT), lysed in 150 mM NaCl, 30 mM Tris-HCl pH 7.5, 0.5% NP40, 1 mM MgCl2; RFP-trap beads 1 h 30 at 4°C; wash buffer with 500 mM NaCl; endogenous maspardin detected by western blotting.

“RAB7 (Ras-related protein RAB7), endogenously expressed in HeLa cells (from UniProt P51149 1-207)”: the binding entry in experiment [1] is given as “binds”. For “TBC1D5, endogenously expressed in HeLa cells (from UniProt Q92609-1 1-795)”, the binding result in experiment [2] was “no binding”; with mCherry-RAB7 WT [3] it was “binds”.

B1: maspardin (SPG21), endogenously expressed in HeLa cells (protein, UniProt Q9NZD8-1 1-308)
chain: T1 sequence
Consider B1, for which the binding result in the experiment with mCherry-RAB7 WT [4] was “binds”.
